Values joined by “and” are separate entries in the source; they are usually repeats but may differ in a detail not shown here. Equal entries are not always repeated. Among all 580,000 compounds or so, about 6,100 (1.1%) were called active. The inconclusive results got no clear call from the source; some entries with a clear call stand among them for comparison. Calls follow the shape of the dose curve; as a rule, active = well fitted inhibition curve with a large enough effect; inconclusive = small, poorly fitted or top-dose-only effect, or another doubt; inactive = no such curve, though single readings can be large or run the other way. A potency beside an inconclusive call is a rough fit, not a confirmed value.
The compounds below were run against Polyunsaturated fatty acid lipoxygenase ALOX12 (Homo sapiens) (UniProt P18054) (assay: Primary qHTS assay for inhibitors of human arachidonate 12S-lipoxygenase (ALOX12): Round 2). Settings: purified 12hLO, xylenol orange hydroperoxide absorbance; series mostly up to 108 µM.
Procedure, shortened: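 Purified human 12hLO (150 nM final) in 25 mM Hepes, 0.01% Triton X-100, pH 7.0 was preincubated 15 min at room temperature with compound. Then 40 uM arachidonic acid was added, 30 min. Hydroperoxide was read by Fe-XO absorbance ratio 573/405 nm.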
Potency is read from the fitted curve at half-maximal effect.

Sequences of proteins named here, by UniProt entry; tags and fusion partners are left off. A change or cut given only in a name is not applied to a line headed by its entry.
UniProt P18054: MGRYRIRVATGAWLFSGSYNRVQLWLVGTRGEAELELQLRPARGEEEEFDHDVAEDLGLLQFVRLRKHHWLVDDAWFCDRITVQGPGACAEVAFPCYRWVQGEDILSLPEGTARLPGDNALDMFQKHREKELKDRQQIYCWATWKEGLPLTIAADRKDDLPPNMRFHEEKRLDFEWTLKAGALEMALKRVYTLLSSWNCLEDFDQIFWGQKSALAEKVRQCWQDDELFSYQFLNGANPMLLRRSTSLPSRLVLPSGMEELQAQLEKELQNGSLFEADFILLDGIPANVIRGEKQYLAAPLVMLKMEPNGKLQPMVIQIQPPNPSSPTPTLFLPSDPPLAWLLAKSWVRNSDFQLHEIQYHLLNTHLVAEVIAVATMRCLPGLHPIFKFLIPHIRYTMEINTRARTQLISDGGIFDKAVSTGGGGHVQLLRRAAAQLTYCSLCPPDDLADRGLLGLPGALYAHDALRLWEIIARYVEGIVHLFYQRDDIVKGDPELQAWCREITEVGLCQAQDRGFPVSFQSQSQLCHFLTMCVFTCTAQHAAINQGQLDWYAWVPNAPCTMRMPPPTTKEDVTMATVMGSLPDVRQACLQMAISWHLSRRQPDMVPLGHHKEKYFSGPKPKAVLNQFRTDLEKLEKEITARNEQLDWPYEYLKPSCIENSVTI

Row | Structure (SMILES) | Potency
1 | Cc1ccc(C(=O)N/C(=C\c2ccco2)C(=O)O)cc1 | inconclusive: 20 µM [inhibitor, partial curve, poor fit]
2 | COc1ccc(Cn2nnnc2C(c2cc3cc(C)ccc3[nH]c2=O)N2CCOCC2)cc1 (stereo not given) | inconclusive: 6.31 µM [inhibitor, full curve]
3 | COc1ccc(NC(=O)Nc2cccs2)cc1Cl | active: 39.8 µM
4 | COc1ccccc1/C=C/C=N/n1c(-c2ccccn2)n[nH]c1=S | inconclusive: 3.98 µM [inhibitor, full curve, poor fit]
5 | CC(C)CNc1oc(COc2ccc3c(c2)OCO3)nc1C#N | inconclusive: 50.1 µM [inhibitor, partial curve, poor fit]
6 | N#Cc1cccc(NC(=O)CSc2ccccc2)c1 | inactive
7 | CCCN(CCC)S(=O)(=O)c1c(C(=O)OCC)c(C)n(C)c1C | inconclusive: 112 µM [inhibitor, single point]
8 | COc1ccc(S(=O)(=O)N(C)C[C@H]2OCCCC[C@@H](C)Oc3ccc(N(C)C)cc3C(=O)N([C@H](C)CO)C[C@@H]2C)cc1 | inconclusive: 112 µM [inhibitor, single point]
9 | COc1ccc(/C=C2\Oc3cc(OCC(=O)N4CCC[C@H]4C(=O)O)ccc3C2=O)c(OC)c1OC | inconclusive: 44.7 µM [inhibitor, partial curve, poor fit]
10 | COC(=O)[C@]1(C)C[C@H](C(=O)NC(C)(C)CO)[C@H](c2ccccc2Cl)N1C | inactive
11 | CC[C@H]1CN(C(=O)Nc2cccc(OC)c2)CC[C@H]1CC(=O)N(C)CCC#N | inconclusive: 25.1 µM [inhibitor, full curve, poor fit]
12 | COc1ccc(N2CCN(C(=O)c3ccc(C)c(NC(=O)c4nsc5ccccc45)c3)CC2)cc1 | inconclusive: 89.1 µM [inhibitor, partial curve, poor fit]
13 | CCOc1ccccc1CNC(=O)C(CC)n1nc(CC)n2c(cc3oc(C)cc32)c1=O (stereo not given) | inactive
14 | CCC1c2ccsc2CCN1C(=O)COc1ccc2ccc(=O)oc2c1 (stereo not given) | inconclusive: 89.1 µM [inhibitor, partial curve, poor fit]
15 | CCOC(=O)C1(CCOc2ccccc2)CCN(Cc2cccs2)CC1 | inactive
16 | O=C(NCCC(=O)N1CCN(C(=O)c2ccco2)CC1)c1ccc(Br)cc1 | inconclusive: 44.7 µM [inhibitor, partial curve, poor fit]
17 | COCCNC(=O)NC1(C(F)(F)F)Oc2ccc(Cl)cc2O1 (stereo not given) | inconclusive: 44.7 µM [inhibitor, partial curve, poor fit]
18 | CCOc1ccc(OCc2nc3ccccc3[nH]2)cc1 | inactive
19 | COCCc1noc(CN(C)c2cc(C(C)C)nc3ccnn23)n1 | inactive
20 | Cc1occc1C(=O)N1CC[C@@H]2CN(S(C)(=O)=O)[C@@H]2C1 | inactive
21 | C(#CCN1CCN(CC#CCOCCOCc2ccccc2)CC1)COCCOCc1ccccc1 | inconclusive: 6.31 µM [inhibitor, partial curve, poor fit]
22 | C[C@@](Cc1ccc(O)c(O)c1)(NN)C(=O)O | inconclusive: 14.1 µM [inhibitor, partial curve, poor fit]

Rewritten as tab-separated lines: part of the list above.
Row	Structure (SMILES)	Potency
3	COc1ccc(NC(=O)Nc2cccs2)cc1Cl	active: 39.8 µM
4	COc1ccccc1/C=C/C=N/n1c(-c2ccccn2)n[nH]c1=S	inconclusive: 3.98 µM [inhibitor, full curve, poor fit]
5	CC(C)CNc1oc(COc2ccc3c(c2)OCO3)nc1C#N	inconclusive: 50.1 µM [inhibitor, partial curve, poor fit]
6	N#Cc1cccc(NC(=O)CSc2ccccc2)c1	inactive
7	CCCN(CCC)S(=O)(=O)c1c(C(=O)OCC)c(C)n(C)c1C	inconclusive: 112 µM [inhibitor, single point]
8	COc1ccc(S(=O)(=O)N(C)C[C@H]2OCCCC[C@@H](C)Oc3ccc(N(C)C)cc3C(=O)N([C@H](C)CO)C[C@@H]2C)cc1	inconclusive: 112 µM [inhibitor, single point]
9	COc1ccc(/C=C2\Oc3cc(OCC(=O)N4CCC[C@H]4C(=O)O)ccc3C2=O)c(OC)c1OC	inconclusive: 44.7 µM [inhibitor, partial curve, poor fit]
10	COC(=O)[C@]1(C)C[C@H](C(=O)NC(C)(C)CO)[C@H](c2ccccc2Cl)N1C	inactive
11	CC[C@H]1CN(C(=O)Nc2cccc(OC)c2)CC[C@H]1CC(=O)N(C)CCC#N	inconclusive: 25.1 µM [inhibitor, full curve, poor fit]
12	COc1ccc(N2CCN(C(=O)c3ccc(C)c(NC(=O)c4nsc5ccccc45)c3)CC2)cc1	inconclusive: 89.1 µM [inhibitor, partial curve, poor fit]
13	CCOc1ccccc1CNC(=O)C(CC)n1nc(CC)n2c(cc3oc(C)cc32)c1=O (stereo not given)	inactive
14	CCC1c2ccsc2CCN1C(=O)COc1ccc2ccc(=O)oc2c1 (stereo not given)	inconclusive: 89.1 µM [inhibitor, partial curve, poor fit]
15	CCOC(=O)C1(CCOc2ccccc2)CCN(Cc2cccs2)CC1	inactive

(list continues)

Row | Structure (SMILES) | Potency
23 | COc1ccc(OC)c(CN2CCC3(CC2)OC(=O)N(Cc2ccc(O)cc2)C3(C)c2ccccc2)c1 (stereo not given) | inconclusive: 70.8 µM [inhibitor, partial curve]
24 | CCOC(=O)c1ccc(Oc2c(C(F)(F)F)oc3cc(O)ccc3c2=O)cc1 | inconclusive: 100 µM [inhibitor, single point]
25 | CCOC1C(=O)NC(=O)N1Cc1ccccc1 (stereo not given) | inconclusive: 3.98 µM [inhibitor, full curve, poor fit]
26 | CCOC(=O)/C(C#N)=C\c1cc(Cl)c(OC)c(OC)c1 | inconclusive: 0.355 µM [inhibitor, full curve, poor fit]
27 | CC(CN1CCCC1)OC(=O)c1ccc(Cl)cc1 (stereo not given) | inconclusive: 79.4 µM [inhibitor, partial curve, poor fit]
28 | COc1ccc(-c2nc(CNC(=O)Nc3ccc(C)cc3Cl)c(C)o2)cc1 | inconclusive: 70.8 µM [inhibitor, partial curve, poor fit]
29 | Cc1ccc(CN2CCCCC23Cc2ccccc2CNC3=O)cc1C (stereo not given) | inconclusive: 39.8 µM [inhibitor, partial curve]
30 | CN(CCc1ccccn1)Cc1ccc(Cl)cc1 | inconclusive: 0.251 µM [inhibitor, full curve, poor fit]
31 | O=C(NCCNCc1ccccc1)c1ccco1 | active: 28.2 µM
32 | Cc1ccc(S(=O)(=O)N2CCCN(C)c3ccccc32)cc1F | inconclusive: 31.6 µM [inhibitor, partial curve]
33 | Cc1ccccc1CSc1nnc(-c2cnccn2)n1C | inconclusive: 126 µM [inhibitor, partial curve, poor fit]
34 | COc1ccc(Oc2ccc(NC(=O)Cn3ncc4ccc(OC)c(OC)c4c3=O)cc2)cc1 | inactive
35 | NC(=O)CC(NC(=O)Cc1ccc(Cl)cc1)c1ccc(NC2CCCCC2)c([N+](=O)[O-])c1 (stereo not given) | inconclusive: 100 µM [inhibitor, single point]
36 | CC(NCCN(C)C)C(=O)C12CC3CC(CC(C3)C1)C2 (stereo not given) | inconclusive: 35.5 µM [inhibitor, single point]
37 | CCCCc1ccc(-n2nc3cc(C)c(NC(=O)Cc4ccccc4)cc3n2)cc1 | inconclusive: 10 µM [inhibitor, partial curve, poor fit]
38 | CCC(C)c1ccccc1NC(=S)NC(=O)c1ccco1 (stereo not given) | inconclusive: 44.7 µM [inhibitor, partial curve, poor fit]
39 | N#C/C(=C\c1ccc([N+](=O)[O-])cc1)C(=O)Nc1ccccc1O | inconclusive: 89.1 µM [inhibitor, partial curve, poor fit]
40 | CCOC(=O)c1c(C)oc2nc(C)nc(NCc3ccccc3Cl)c12 | inactive
41 | COC(=O)c1ccccc1NC(=O)Cn1cc(S(=O)(=O)Cc2ccccc2F)c2ccccc21 | inconclusive: 79.4 µM [inhibitor, partial curve, poor fit]
42 | c1ccc(COc2ccc(OCCCCN3CCCCC3)cc2)cc1 | inconclusive: 14.1 µM [inhibitor, partial curve, poor fit]
43 | Cc1cc([N+](=O)[O-])nn1CC(=O)N/N=C/c1ccc(O)cc1O | inactive
44 | CC1CC(OCC(O)C[N+]2(C)CCOCC2)CC(C)(C)C1 (stereo not given) | inconclusive: 44.7 µM [inhibitor, partial curve, poor fit]

Row | Structure (SMILES) | Potency
45 | CCN(CC)c1ccc(NC(=O)c2ccccc2F)cc1S(=O)(=O)Nc1ccccc1OC | inconclusive: 39.8 µM [inhibitor, partial curve]
46 | Cn1c(=O)[nH]c(=O)c2[nH]c(N(Cc3ccccc3)Cc3ccccc3)nc21 | inactive
47 | Cc1cc(S(=O)(=O)Nc2ccc(N3CCOCC3)cc2)ccc1Br | inconclusive: 100 µM [inhibitor, partial curve, poor fit]
48 | Cc1ccc(C2Cn3nnc(C(=O)N4CCC(C(=O)Nc5ccc(F)c(C)c5)CC4)c3CO2)cc1 (stereo not given) | inactive
49 | COC(=O)c1ccc(CNC(=O)C2Cc3ccc(C)cc3S2)cc1 (stereo not given) | inconclusive: 12.6 µM [inhibitor, partial curve, poor fit]
50 | Cc1ccc(Nc2nnc(SCC(=O)c3ccc(Cl)s3)s2)cc1C | inactive
51 | COCCNC(=O)C1COC2(CCN(C(=O)c3ccc(F)cc3)CC2)N1C(=O)c1ccc(C)cc1 (stereo not given) | inactive
52 | Cc1cccc(C(=O)NCc2ccco2)c1C | inactive
53 | O=C(Nc1cc(Cl)cc(Cl)c1)c1ccc(F)c(S(=O)(=O)NC2CCCC2)c1 | inconclusive: 126 µM [inhibitor, single point]
54 | N#Cc1nc(-c2ccco2)oc1N1CCN(Cc2ccccc2)CC1 | inconclusive: 100 µM [inhibitor, partial curve, poor fit] and inconclusive: 44.7 µM [inhibitor, single point]
55 | O=C(CCCOC(=O)c1cc2ccccc2[nH]1)c1ccccc1 | inconclusive: 44.7 µM [inhibitor, partial curve, poor fit]
56 | COc1ccc(Nc2ncc3nc(-c4cccs4)c(=O)n(Cc4cccc(OC)c4)c3n2)cc1 | inconclusive: 17.8 µM [inhibitor, partial curve, poor fit]
57 | CCN(CC)S(=O)(=O)N1CC=C(c2c[nH]c3cccc(C)c23)CC1 | inconclusive: 126 µM [inhibitor, single point]
58 | Cc1cc2oc(C(=O)NCC(c3cccs3)N3CCOCC3)cc(=O)c2cc1C (stereo not given) | inconclusive: 39.8 µM [inhibitor, single point]
59 | CC1CCCN(S(=O)(=O)c2cc(C(=O)OCc3nc4ccccc4o3)ccc2Cl)C1 (stereo not given) | inactive
60 | c1cc2c3c(cccc3c1)NC1(CCC3(CC1)Nc1cccc4cccc(c14)N3)N2 | inconclusive: 70.8 µM [inhibitor, partial curve, poor fit]
61 | COc1ccc(S(=O)(=O)N(C)CC(=O)Nc2cccc(C(C)=O)c2)cc1 | inactive
62 | COc1ccc(C(CCN2CCOCC2)c2c(O)cc(OC)cc2OC)cc1 (stereo not given) | inactive
63 | COC(=O)Cc1ccc(NC(=S)N2CCCCC2C)cc1 (stereo not given) | inactive
64 | CCCCN1C(=O)Cc2c1nc(N)c1c(N)nc(N(CCC)CCC)c(C#N)c21 | inconclusive: 3.55 µM [inhibitor, full curve, poor fit]
65 | CN(C)S(=O)(=O)c1cccc(NC(=S)NC(=O)C2CCCCC2)c1 | inconclusive: 44.7 µM [inhibitor, partial curve, poor fit]
